Source: the M2OR odorant receptor database
Only a part is listed here, and it is no random draw. Calls are pooled over several reports, among them a noisy single-well screen. This is one part of the list.

Key:
Details in all cases: stereoisomer not certain
[1] = system: T1, OR9G4
T1 sequence (whole entry): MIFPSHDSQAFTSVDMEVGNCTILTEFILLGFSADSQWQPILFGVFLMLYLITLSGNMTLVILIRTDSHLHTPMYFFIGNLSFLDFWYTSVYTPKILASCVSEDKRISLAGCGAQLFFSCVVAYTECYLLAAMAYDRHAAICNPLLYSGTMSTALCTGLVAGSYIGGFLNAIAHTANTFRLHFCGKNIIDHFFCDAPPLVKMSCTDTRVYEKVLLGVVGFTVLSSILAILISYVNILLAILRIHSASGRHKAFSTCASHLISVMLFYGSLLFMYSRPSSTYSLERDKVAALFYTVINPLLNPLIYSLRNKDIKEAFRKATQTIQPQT
Outline: (§1)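 Values were gathered from published papers (main text and supplementary material), with extra details requested from the original authors when needed, and checked for typos and inconsistencies. Each receptor–molecule pair is called responsive (active) if the original authors judged the measured signal statistically different from baseline, and non-responsive (inactive) otherwise. Assay methods varied by source, often transient mammalian cell-line luciferase assays. Recorded details include cell line, G-protein, co-transfected protein and tags.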

[2] = system: T2, OR9G9
T2 sequence (whole entry): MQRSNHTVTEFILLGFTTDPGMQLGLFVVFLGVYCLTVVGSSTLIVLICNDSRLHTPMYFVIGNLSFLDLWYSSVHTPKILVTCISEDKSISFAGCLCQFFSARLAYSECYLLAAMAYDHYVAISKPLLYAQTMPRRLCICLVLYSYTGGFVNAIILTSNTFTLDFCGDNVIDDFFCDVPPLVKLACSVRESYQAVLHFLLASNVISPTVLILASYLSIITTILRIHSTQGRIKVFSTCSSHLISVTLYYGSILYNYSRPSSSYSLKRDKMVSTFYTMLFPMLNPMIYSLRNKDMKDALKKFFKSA
Outline: as §1

[3] = system: T3, OR9G9; remark: listed apart in the source
T3 sequence (whole entry): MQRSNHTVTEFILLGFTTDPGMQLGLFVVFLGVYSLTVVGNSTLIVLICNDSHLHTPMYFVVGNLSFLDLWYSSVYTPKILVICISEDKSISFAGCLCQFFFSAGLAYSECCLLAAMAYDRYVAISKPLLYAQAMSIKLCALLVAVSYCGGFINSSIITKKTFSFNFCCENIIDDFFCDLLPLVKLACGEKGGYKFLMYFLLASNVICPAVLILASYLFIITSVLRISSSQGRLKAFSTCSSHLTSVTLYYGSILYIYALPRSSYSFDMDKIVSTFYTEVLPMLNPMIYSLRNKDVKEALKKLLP
Outline: as §1

[4] = molecular target: T4, OR9I1 (Homo sapiens) (UniProt Q8NGQ6)
T4 sequence (whole entry): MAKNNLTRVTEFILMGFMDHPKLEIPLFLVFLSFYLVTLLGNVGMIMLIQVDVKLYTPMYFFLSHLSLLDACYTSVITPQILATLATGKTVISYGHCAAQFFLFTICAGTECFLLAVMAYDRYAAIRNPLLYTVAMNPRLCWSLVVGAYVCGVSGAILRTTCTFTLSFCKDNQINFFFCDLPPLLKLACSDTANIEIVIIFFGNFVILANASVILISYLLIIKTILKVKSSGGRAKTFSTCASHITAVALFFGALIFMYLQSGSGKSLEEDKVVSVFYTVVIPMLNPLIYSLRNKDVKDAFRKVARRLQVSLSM
Outline: as §1

[5] = molecular target: T5, OR9K2 (Homo sapiens) (UniProt Q8NGE7)
T5 sequence (whole entry): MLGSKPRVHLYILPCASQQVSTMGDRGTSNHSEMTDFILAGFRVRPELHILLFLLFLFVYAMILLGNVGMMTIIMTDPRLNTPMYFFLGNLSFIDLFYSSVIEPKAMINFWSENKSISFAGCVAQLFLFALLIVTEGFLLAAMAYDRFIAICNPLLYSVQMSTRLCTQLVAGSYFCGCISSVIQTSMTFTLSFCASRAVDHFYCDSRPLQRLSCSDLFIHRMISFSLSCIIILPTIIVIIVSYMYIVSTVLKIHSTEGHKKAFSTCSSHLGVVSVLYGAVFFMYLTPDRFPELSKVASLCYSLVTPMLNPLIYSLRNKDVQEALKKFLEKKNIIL
Outline: as §1

[6] = system: T6, OR9Q1
T6 sequence (whole entry): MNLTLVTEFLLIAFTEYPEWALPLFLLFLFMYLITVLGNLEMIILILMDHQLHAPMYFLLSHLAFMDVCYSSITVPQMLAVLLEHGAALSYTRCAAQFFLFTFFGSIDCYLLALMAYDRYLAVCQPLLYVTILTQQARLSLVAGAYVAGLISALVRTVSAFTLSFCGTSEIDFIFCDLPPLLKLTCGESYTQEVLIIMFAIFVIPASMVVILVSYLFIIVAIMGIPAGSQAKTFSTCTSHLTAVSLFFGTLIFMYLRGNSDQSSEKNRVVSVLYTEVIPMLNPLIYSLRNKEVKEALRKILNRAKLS
Outline: as §1

[7] = molecular target: T7, OR9Q2 (Homo sapiens) (UniProt Q8NGE9)
T7 sequence (whole entry): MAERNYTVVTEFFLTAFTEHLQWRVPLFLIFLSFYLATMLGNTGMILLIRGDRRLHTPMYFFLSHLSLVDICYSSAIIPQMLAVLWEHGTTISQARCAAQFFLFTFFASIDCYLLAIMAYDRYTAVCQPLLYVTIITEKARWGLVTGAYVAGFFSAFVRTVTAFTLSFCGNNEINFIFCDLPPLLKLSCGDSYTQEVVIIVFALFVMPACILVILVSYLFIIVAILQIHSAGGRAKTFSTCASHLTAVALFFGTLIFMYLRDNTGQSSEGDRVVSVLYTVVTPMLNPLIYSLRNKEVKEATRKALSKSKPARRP
Outline: as §1

SMILES | odorant receptor agonist call [1] | odorant receptor agonist call [2] | odorant receptor agonist call [3] | odorant receptor agonist call [4] | odorant receptor agonist call [5] | odorant receptor agonist call [6] | odorant receptor agonist call [7]
COc1cc(C=O)ccc1O | inactive | inactive | inactive | inactive | inactive | inactive | inactive
CC12CCC(C1)C(C)(C)C2=O (configuration not stated) | inactive | inactive | inactive | inactive | inactive | inactive | inactive
O=C1CCCCC1 | active | inactive | active | inactive | inactive | – | inactive
O=C1CCCCCCCCCCCC(=O)OCCO1 | inactive | inactive | inactive | inactive | inactive | inactive | inactive
COc1ccccc1O | inactive | inactive | inactive | inactive | inactive | inactive | inactive
CCCCCCCCCC=O | inactive | inactive | inactive | inactive | inactive | inactive | inactive
CC12CCC(CC1)C(C)(C)O2 | inactive | inactive | inactive | inactive | inactive | inactive | inactive
CC1=NC(C)SC1C (configuration not stated) | inactive | inactive | inactive | inactive | inactive | – | inactive
CC1=CCC(C(C)(C)O)CC1 (configuration not stated) | inactive | inactive | inactive | inactive | inactive | inactive | inactive
CCCCCCCCCCC=O | inactive | inactive | inactive | inactive | inactive | inactive | inactive
CC(=O)c1ccccc1 | inactive | inactive | inactive | inactive | inactive | – | inactive
CC=Cc1ccc(O)c(OC)c1 | inactive | inactive | inactive | inactive | inactive | active | inactive
c1ccc(Oc2ccccc2)cc1 | inactive | inactive | inactive | inactive | inactive | inactive | inactive
CC(=O)OCC=C(C)CCC=C(C)C | inactive | inactive | inactive | inactive | inactive | inactive | inactive
CCCCCCCCOC(C)=O | inactive | inactive | inactive | inactive | inactive | inactive | inactive
CCCCCC(C)=O | inactive | inactive | inactive | inactive | inactive | – | inactive
C=CCc1ccc(OC)c(OC)c1 | inactive | inactive | inactive | inactive | inactive | inactive | inactive
O=CCc1ccccc1 | inactive | inactive | inactive | inactive | inactive | inactive | inactive
CCCCCCCC=CC=O | inactive | inactive | inactive | inactive | active | inactive | inactive
C=C(C)C1CCC2=CC(=O)CC(C)C2(C)C1 (configuration not stated) | – | – | – | – | – | active | –
CC(C)(O)CCCC1=CCC(C=O)CC1 (configuration not stated) | – | – | – | – | – | inactive | –
CC12C=CCC1C1CCC3=CC(=O)CCC3(C)C1CC2 (configuration not stated) | inactive | inactive | inactive | inactive | inactive | inactive | inactive
COc1cc(C)ccc1O | inactive | inactive | inactive | inactive | inactive | inactive | inactive
COC(=O)c1ccccc1 | inactive | inactive | active | inactive | inactive | – | inactive
CCCCCCCOC(C)=O | inactive | inactive | inactive | inactive | inactive | inactive | inactive
CCCCCCCC=O | inactive | inactive | inactive | inactive | inactive | inactive | inactive
CC1COCc2cc3c(cc21)C(C)(C)C(C)C3(C)C (configuration not stated) | active | inactive | inactive | inactive | active | active | active

An excerpt of these results, comma-delimited:
SMILES,odorant receptor agonist call [1],odorant receptor agonist call [2],odorant receptor agonist call [3],odorant receptor agonist call [4],odorant receptor agonist call [5],odorant receptor agonist call [6],odorant receptor agonist call [7]
O=C1CCCCC1,active,inactive,active,inactive,inactive,–,inactive
CC1=CCC(C(C)(C)O)CC1 (configuration not stated),inactive,inactive,inactive,inactive,inactive,inactive,inactive
